Laboratory results: patent publication US20240053360A1 (EQUILLIUM, published 2024)
No constants are given. Whether binding was seen depends on the method and setting. Some entries that bind do so weakly or less than the wild type.

What was measured:
[1] = biological target: T1, Biotinylated recombinant human CD6 (human) (UniProt P30203); test: SPR (Biacore 3000), biotinylated rhCD6 on SA chip, itolizumab 900 nM to 0.137 nM
T1 sequence (biotinylated (site not stated), looked up): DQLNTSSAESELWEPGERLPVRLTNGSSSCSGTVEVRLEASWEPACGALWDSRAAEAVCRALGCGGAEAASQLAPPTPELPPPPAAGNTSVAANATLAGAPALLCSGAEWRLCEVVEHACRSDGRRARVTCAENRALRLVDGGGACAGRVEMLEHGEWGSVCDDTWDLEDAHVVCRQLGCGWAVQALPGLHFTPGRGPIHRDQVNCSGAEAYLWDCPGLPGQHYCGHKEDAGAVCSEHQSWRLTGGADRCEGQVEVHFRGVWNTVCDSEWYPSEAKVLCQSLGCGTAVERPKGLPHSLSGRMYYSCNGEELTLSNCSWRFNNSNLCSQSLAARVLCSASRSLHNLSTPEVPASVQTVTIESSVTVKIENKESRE

[2] = biological target: T1, Biotinylated recombinant human CD6 (human); test: SPR (Biacore 3000), biotinylated rhCD6 captured on SA chip at three densities, antibody as analyte
[3] = biological target: T1, Biotinylated recombinant human CD6 (human); test: SPR (Biacore 3000), biotinylated rhCD6 on SA chip, Fab 900 nM to 11.1 nM

Row | Binder | binding [1] | binding [2] | binding [3]
1 | itolizumab (antibody, human IgG1, kappa, V domains shown, Humanized anti-CD6 monoclonal antibody; also called EQ001; ALZUMAB) VH: EVQLVESGGGLVKPGGSLKLSCAASGFKFSRYAMSWVRQAPGKRLEWVATISSGGSYIYYPDSVKGRFTISRDNVKNTLYLQMSSLRSEDTAMYYCARRDYDLDYFDSWGQGTLVTVSS VL: DIQMTQSPSSLSASVGDRVTITCKASRDIRSYLTWYQQKPGKAPKTLIYYATSLADGVPSRFSGSGSGQDYSLTISSLESDDTATYYCLQHGESPFTLGSGTKLEIKR | binds | binds | 
2 | itolizumab fab (Fab, V domains shown) VH: EVQLVESGGGLVKPGGSLKLSCAASGFKFSRYAMSWVRQAPGKRLEWVATISSGGSYIYYPDSVKGRFTISRDNVKNTLYLQMSSLRSEDTAMYYCARRDYDLDYFDSWGQGTLVTVSS VL: DIQMTQSPSSLSASVGDRVTITCKASRDIRSYLTWYQQKPGKAPKTLIYYATSLADGVPSRFSGSGSGQDYSLTISSLESDDTATYYCLQHGESPFTLGSGTKLEIK |  |  | binds
